Reference: publication PMC12032772

Assays:
[1] = biological target: Hexose-6-phosphate dehydrogenase (human (endogenous in MCF7 and MDA-MB-231)); test: co-IP; MDA-MB-231 cells; reversible intracellular crosslinking (2 mM DSP, 0.5 mM DTME), lysis in 1% Triton X-100 buffer, IP with rabbit polyclonal anti-H6PD antibody and protein A magnetic beads, washes with 0.5 M NaCl, immunoblot; rabbit IgG as control
[2] = biological target: Hexose-6-phosphate dehydrogenase (human (endogenous in MCF7 and MDA-MB-231)); test: co-IP; MCF7 cells, endogenous proteins; reversible intracellular crosslinking (2 mM DSP, 0.5 mM DTME), lysis in 1% Triton X-100 buffer, IP with rabbit polyclonal anti-H6PD antibody and protein A magnetic beads, washes with 0.5 M NaCl, immunoblot; rabbit IgG as control

B1: Mannosyl-oligosaccharide glucosidase (enzyme, UniProt Q13724 1-837)
chain: MARGERRRRAVPAEGVRTAERAARGGPGRRDGRGGGPRSTAGGVALAVVVLSLALGMSGRWVLAWYRARRAVTLHSAPPVLPADSSSPAVAPDLFWGTYRPHVYFGMKTRSPKPLLTGLMWAQQGTTPGTPKLRHTCEQGDGVGPYGWEFHDGLSFGRQHIQDGALRLTTEFVKRPGGQHGGDWSWRVTVEPQDSGTSALPLVSLFFYVVTDGKEVLLPEVGAKGQLKFISGHTSELGDFRFTLLPPTSPGDTAPKYGSYNVFWTSNPGLPLLTEMVKSRLNSWFQHRPPGAPPERYLGLPGSLKWEDRGPSGQGQGQFLIQQVTLKIPISIEFVFESGSAQAGGNQALPRLAGSLLTQALESHAEGFRERFEKTFQLKEKGLSSGEQVLGQAALSGLLGGIGYFYGQGLVLPDIGVEGSEQKVDPALFPPVPLFTAVPSRSFFPRGFLWDEGFHQLVVQRWDPSLTREALGHWLGLLNADGWIGREQILGDEARARVPPEFLVQRAVHANPPTLLLPVAHMLEVGDPDDLAFLRKALPRLHAWFSWLHQSQAGPLPLSYRWRGRDPALPTLLNPKTLPSGLDDYPRASHPSVTERHLDLRCWVALGARVLTRLAEHLGEAEVAAELGPLAASLEAAESLDELHWAPELGVFADFGNHTKAVQLKPRPPQGLVRVVGRPQPQLQYVDALGYVSLFPLLLRLLDPTSSRLGPLLDILADSRHLWSPFGLRSLAASSSFYGQRNSEHDPPYWRGAVWLNVNYLALGALHHYGHLEGPHQARAAKLHGELRANVVGNVWRQYQATGFLWEQYSDRDGRGMGCRPFHGWTSLVLLAMAEDY
In the case of B1, the binding [1] is reported as “binds” and the binding [2] is reported as “binds”.

These are yes or no findings as the source states them, for the method shown. In cells and extracts the contact can be indirect. Binding can be weak; no strength is given. Where a sequence is shown, tags or fusion partners need not be part of it.
